# This is one part of the list.
# Tested on: T1, CTL2-GFP (C. trachomatis L2/434/Bu, GFP-expressing)
# T1 construct: L2/434/Bu, GFP-expressing
# Set-up: species or system HeLa; Intracellular C. trachomatis growth in HeLa cells, bulk GFP fluorescence relative to DMSO
# Conditions: bulk GFP, single well; 28.5 h, 10 µM; inhibitor
row,SMILES,% of control remaining [%]
1,O=c1[nH]c(=O)c2cc(S(=O)(=O)Nc3ccccc3Cc3ccccc3)ccc2[nH]1 [CBK286377],72.741
2,CC(C)NC(=O)[C@@H](C)C1CC[C@@]2(C)CC[C@H](NC(=O)C3CC3)[C@@H](C)[C@@H]2[C@H]1O (stereo partly drawn) [CBK289444],137.25
3,COc1ccc(OC(=O)c2csc(Cc3c(Cl)cccc3Cl)n2)cc1 [CBK083573],99.4694
4,Cc1cccn2c(=O)cc(CN3CCC(c4ccn[nH]4)CC3)nc12 [CBK305951],143.62
5,O=C1CCc2cc(S(=O)(=O)Nc3cccc(-c4ccc(F)cc4)c3)ccc2N1 [CBK286371],81.6844
6,Cc1cc(N2CCOC(c3cccs3)C2)ccn1 (stereo not drawn) [CBK304691],102.762
7,COc1cccc(/C=C2/SC(=S)NC2=O)c1OCCCOc1ccc(C)cc1C [CBK264441],136.504
8,Cn1cc(C(=O)NC(Cc2cccs2)c2ccccn2)ccc1=O (stereo not drawn) [CBK285209],95.7458
9,COC(=O)c1ccc(-c2ccc(F)cc2OC)nc1 [CBK149230],108.785
10,CC(C)Nc1cc(OCc2ccc(-c3ccccc3)cc2)ncn1 [CBK115658],99.4174
11,N#Cc1c(C(F)(F)F)cc(-c2cccs2)nc1SCC(O)CN1CCSCC1 (stereo not drawn) [CBK265947],122.983
12,COC(=O)c1cn([C@H]2CO[C@H]3[C@@H]2OC[C@@H]3NC(=O)Nc2cccc(C(F)(F)F)c2)nn1 [CBK289501],121.83
13,COc1c(Br)cc2c(cc(C)n2-c2ccccc2)c1OCC(O)CNC(C)C (stereo not drawn) [CBK263516],10.8995
14,CCC(Sc1nccn1C)C(=O)Nc1ccc(S(N)(=O)=O)cc1 (stereo not drawn) [CBK058413],85.4441
15,Fc1ccccc1-c1nc2cnccn2c1NCc1cccs1 [CBK282332],113.373
16,O=C(Nc1ccc(N2CCOCC2)c2nonc12)c1cc(-c2cccnc2)nc2ccc(Cl)cc12 [CBK267724],109.96
17,Cc1ccc(C)c(NC(=O)Cc2nc(CN3CCNC(=O)C3)cs2)c1 [CBK305071],119.17
18,CC1=NN(C(=O)C2CC2)C(=O)C1Cc1ccc(F)cc1 (stereo not drawn) [CBK083561],128.941
19,COc1ccc(-c2nc3cc(NC(=O)C(c4ccccc4)c4ccccc4)ccc3o2)cc1 [CBK264980],100
20,Cc1cn([C@H]2C[C@@H](O)[C@@H](CO)O2)c(=O)n(CCC#N)c1=O [CBK201322],128.222
21,Cc1cc(CN2CC3CCCN3C[C@@H]2C)c(C)n1CC1CCCO1 (stereo partly drawn) [CBK285419],131.929
22,O=C(c1cnn(-c2ccc(Cl)cc2)c1C(F)(F)F)N1CCN(c2ncccn2)CC1 [CBK107448],100
23,O=S(=O)(NC1c2cccc3cccc(c23)C1Sc1ccccn1)c1ccc(Cl)cc1 (stereo not drawn) [CBK264073],125.535
24,O=C(c1ccccc1F)N1CC2CCCC(C1)C2N1CCOCC1 (stereo not drawn) [CBK285262],138.341
25,O=C(O)CCC(=O)NCCc1ccc(Cl)cc1 [CBK287165],108.916

row,SMILES,% of control remaining [%]
1,Cc1ccc(CN(CCCn2ccnc2)Cc2ccncc2)o1 [CBK283101],80.2384
2,Cc1ccc(C)c(C2CCCN2C(=O)Cn2cc(C(=O)NCc3ccccc3)ccc2=O)c1 (stereo not drawn) [CBK286052],88.0655
3,O=C(c1ccccc1)N1C[C@H](c2ccc(F)cc2)[C@H]2CN(Cc3ccccc3F)CC[C@H]21 [CBK286289],82.0108
4,Cc1ccc(C)c(C(=O)C2=C(O)C(=O)N(CCCN3CCOCC3)C2c2ccncc2)c1 (stereo not drawn) [CBK265492],126.244
5,CCc1nc2ccc(C(=O)N3CCN(c4ccccc4)CC3)cn2c1N(C)C(=O)Nc1ccccc1OC [CBK145886],170.375
6,CN1CCN(CCOC(=O)N2CCC(C(F)(F)F)CC2)CC1 [CBK200206],118.886
7,Cc1nnc(SCC(=O)NC(C)(C)C)n1NCc1cccc(Br)c1 [CBK266517],91.3003
8,O=C(CSc1nnc(Nc2ccccc2)n1-c1ccccc1)Nc1ccc2c(c1)COC2=O [CBK268298],155.858
9,COc1cc(C(=O)N2CCC3(CC2)CC(=O)c2ccc(-c4ccccc4)cc2O3)cc(OC)c1C [CBK169037],80.7885
10,NC(=O)C1CCN(c2ncnc3c2oc2ccccc23)CC1 [CBK287789],125.54
11,CCOc1ccc2c(c1)-c1c(ssc1=S)C(C)(C)N2C(=O)CSc1nnc[nH]1 [CBK262680],108.891
12,O=C(Oc1ccccc1)c1cc(S(=O)(=O)N2CCOCC2)c(Cl)cc1Cl [CBK269656],168.969
13,COc1cccc(-c2ccc(NC(=O)CCC3C(=O)Nc4ccccc43)cc2)c1 (stereo not drawn) [CBK285851],98.4017
14,C/C(=N/OCC(=O)N/N=C/c1sc2ccccc2c1O)c1ccccc1 [CBK262266],126.121
15,Cc1nc(C2CCCN(C(=O)c3cscn3)C2)c2sccn12 (stereo not drawn) [CBK282236],133.217
16,Cc1cc(N2C(=O)c3ccc(Oc4ccc5c(c4)C(=O)N(c4cc(C)on4)C5=O)cc3C2=O)no1 [CBK266463],148.534
17,c1cncc(-c2nccnc2N2CCN(c3ccncc3)CC2)c1 [CBK036965],247.774
18,O=C(NCCn1cccn1)N1CCCN(Cc2ccncc2)CC1 [CBK307129],136.309
19,Cn1cc(CCNC(=O)Nc2ccc(N3CCCC3)nc2)cn1 [CBK305659],93.7345
20,CC(=C\C(=O)O)/C(=C/c1ccc2ccccc2n1)C(=O)O [CBK278294N],100
21,Cc1ccc2c(c1)C(C[C@H]1CN(C(=O)C3CCCC3)CC[C@H]1CC(=O)O)=NCC2 [CBK289163],143.497
22,O=S(=O)(c1ccc2nc(-c3ccccc3)c(-c3ccc(O)cc3)nc2c1)c1ccc2nc(-c3ccccc3)c(-c3ccc(O)cc3)nc2c1 [CBK261148],100.734
23,OCCN(CCO)c1cncc(-c2cccs2)n1 [CBK065766],182.524
24,O=C(c1cccs1)N1C[C@@H]2C[C@H](C1)c1c(-c3cncnc3)ccc(=O)n1C2 [CBK289194],127.396
25,COC(=O)Cc1ccc(NC(=S)Nc2ccc(N3CCOCC3)cc2)cc1 [CBK267211],158.193

row,SMILES,% of control remaining [%]
1,CC1CCN(c2ccc(C(C)NC(=O)Cn3cccn3)cc2)CC1 (stereo not drawn) [CBK281725],142.694
2,COc1c(C)cc(-c2[nH]c(C)nc2C)cc1C [CBK306941],135.439
3,O=C(O)CSc1nnc(-c2ccncc2)n1-c1ccc(Cl)cc1 [CBK266686],107.94
4,O=C(NCc1nnc(-c2cccs2)o1)C1(c2ccccc2F)CC1 [CBK284637],146.831
5,O=[N+]([O-])c1ccccc1/C=C/CN1CCN(C/C=C/c2ccccc2)CC1 [CBK261864],100
6,CC(NC(=O)C1(Cn2ccnc2)CC1)c1cccnc1 (stereo not drawn) [CBK306812],129.543
7,CCn1cc(C(=O)NN)c(=O)c2cc(F)c(N3CCCCCC3)cc21 [CBK307145],110.313
8,O=C(Cc1ccc(-c2ccccc2)cc1)N1CCc2nc3ccccc3c(=O)n2CC1 [CBK286312],111.434
9,CCCC(=O)Nc1ccc(C(=O)O)cc1NC(=O)CCC [CBK286939],143.912
10,CN1CCN(c2ccccc2NC(=S)NC(=O)c2ccco2)CC1 [CBK267909],121.441
11,CN(C(=O)C1CCc2nn(C)c(=O)n2C1)C1Cc2ccccc2C1 (stereo not drawn) [CBK307108],113.959
12,CC(=O)c1ccc(CN2CCCN(S(=O)(=O)c3ccc(C(=O)c4ccccc4)cc3)CC2)cc1 [CBK062764],94.1776
13,CCCC1=NN=C(c2cc(C(F)(F)F)ccc2C(F)(F)F)C1C(=O)OCC (stereo not drawn) [CBK103527],90.4763
14,O=C(O)c1ccc(/C=N/NC(=O)C2COc3ccccc3O2)cc1 (stereo not drawn) [CBK261481],100
15,COC(C)CN(C)C(=O)c1cc2cc(C)ccc2nc1C (stereo not drawn) [CBK282036],131.837
16,Cc1oc2c(c1CC(=O)N(C)CCN(C)C)C(=O)CC(C)(C)C2 [CBK282171],109.493
17,CCOC(=O)c1cn([C@H](CO)CCSC)cc(Oc2ccccc2)c1=O [CBK307349],126.916
18,O=C(O)CCC(=O)NCc1ccc2c(c1)OCO2 [CBK286930],156.806
19,COc1ccc(C2CCN(CC(=O)N3CCCC3)CC2)cc1 [CBK283561],101.361
20,Cc1nn(CCCC(=O)Nc2sc3c(c2C#N)CCC(C(C)(C)C)C3)c(C)c1[N+](=O)[O-] (stereo not drawn) [CBK268982],89.782
21,COCCNC(=O)[C@@H](C)C1CC[C@@]2(C)CC[C@H](NS(C)(=O)=O)[C@@H](C)[C@@H]2[C@H]1O (stereo partly drawn) [CBK289457],100.572
22,CCCCNC(=O)c1ccc2nc(CC)c(N(C)CCC(C)C)n2c1 [CBK145477],95.1597
23,O=C(CN1CCN(c2ccccc2)CC1)Nc1ccc([N+](=O)[O-])cc1C(=O)c1ccccc1 [CBK265799],116.842
24,O=C(NCc1ccccn1)c1ccc(NS(=O)(=O)c2cccc(Cl)c2)cc1 [CBK267249],93.5625
25,O=C(CN1CCC(c2cncc(-c3cccc(C(F)(F)F)c3)n2)CC1)N1CCCC1 [CBK286152],103.782

# Gathered by group, those above with fluorine
row,SMILES,% of control remaining [%]
5,O=C1CCc2cc(S(=O)(=O)Nc3cccc(-c4ccc(F)cc4)c3)ccc2N1 [CBK286371],81.6844
9,COC(=O)c1ccc(-c2ccc(F)cc2OC)nc1 [CBK149230],108.785
11,N#Cc1c(C(F)(F)F)cc(-c2cccs2)nc1SCC(O)CN1CCSCC1 (stereo not drawn) [CBK265947],122.983
12,COC(=O)c1cn([C@H]2CO[C@H]3[C@@H]2OC[C@@H]3NC(=O)Nc2cccc(C(F)(F)F)c2)nn1 [CBK289501],121.83
15,Fc1ccccc1-c1nc2cnccn2c1NCc1cccs1 [CBK282332],113.373
18,CC1=NN(C(=O)C2CC2)C(=O)C1Cc1ccc(F)cc1 (stereo not drawn) [CBK083561],128.941
22,O=C(c1cnn(-c2ccc(Cl)cc2)c1C(F)(F)F)N1CCN(c2ncccn2)CC1 [CBK107448],100
24,O=C(c1ccccc1F)N1CC2CCCC(C1)C2N1CCOCC1 (stereo not drawn) [CBK285262],138.341
3,O=C(c1ccccc1)N1C[C@H](c2ccc(F)cc2)[C@H]2CN(Cc3ccccc3F)CC[C@H]21 [CBK286289],82.0108
6,CN1CCN(CCOC(=O)N2CCC(C(F)(F)F)CC2)CC1 [CBK200206],118.886
4,O=C(NCc1nnc(-c2cccs2)o1)C1(c2ccccc2F)CC1 [CBK284637],146.831
7,CCn1cc(C(=O)NN)c(=O)c2cc(F)c(N3CCCCCC3)cc21 [CBK307145],110.313
13,CCCC1=NN=C(c2cc(C(F)(F)F)ccc2C(F)(F)F)C1C(=O)OCC (stereo not drawn) [CBK103527],90.4763
25,O=C(CN1CCC(c2cncc(-c3cccc(C(F)(F)F)c3)n2)CC1)N1CCCC1 [CBK286152],103.782

# Reference: paper PMC12040169 (PLOS Biology, 2025)
